Experimental data taken from publication doi:10.1101/296376.

Sequences of proteins named here, by UniProt entry; tags and fusion partners are left off. Residues count along the entry.
UniProt Q96H55, residues 824-970: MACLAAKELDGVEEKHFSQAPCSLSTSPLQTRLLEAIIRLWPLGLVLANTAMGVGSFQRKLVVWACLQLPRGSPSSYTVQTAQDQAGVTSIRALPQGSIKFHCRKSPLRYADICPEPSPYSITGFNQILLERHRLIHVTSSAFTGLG
UniProt Q8IXI2: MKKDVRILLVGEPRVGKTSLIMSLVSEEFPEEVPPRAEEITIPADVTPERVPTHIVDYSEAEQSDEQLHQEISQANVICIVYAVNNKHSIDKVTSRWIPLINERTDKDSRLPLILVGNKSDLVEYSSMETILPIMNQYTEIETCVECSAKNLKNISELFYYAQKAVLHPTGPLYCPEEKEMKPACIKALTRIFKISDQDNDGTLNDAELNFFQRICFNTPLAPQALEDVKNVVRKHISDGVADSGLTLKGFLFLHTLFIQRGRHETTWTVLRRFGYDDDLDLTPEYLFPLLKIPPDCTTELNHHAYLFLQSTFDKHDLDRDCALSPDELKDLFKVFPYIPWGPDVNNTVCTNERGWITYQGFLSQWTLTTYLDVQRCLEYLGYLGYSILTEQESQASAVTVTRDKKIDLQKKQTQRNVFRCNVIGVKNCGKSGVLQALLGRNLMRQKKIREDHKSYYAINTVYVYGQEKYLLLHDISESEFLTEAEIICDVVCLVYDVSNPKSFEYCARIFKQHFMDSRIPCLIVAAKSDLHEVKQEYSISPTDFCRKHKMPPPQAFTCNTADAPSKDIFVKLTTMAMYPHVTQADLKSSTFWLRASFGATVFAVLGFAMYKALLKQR

Biological target: myc-BirA*-Myo19 tail (human) (UniProt Q96H55)
Assay: proximity labelling

## Miro-1 (from UniProt Q8IXI2 1-618)
  binding: binds

No constants are given. Whether binding was seen depends on the method and setting. In cells and extracts the contact can be indirect. Here binding means that the protein was enriched with, or labelled near, the bait; the list need not be complete.
